Assay results as given in patent publication CN113214399A.
These are yes or no findings as the source states them, for the method shown. Some binding calls cover weakened binding; strength is not graded here.

What was measured:
[1] = target: T1, 重组AFP抗原 (甲胎蛋白, α-fetoprotein) (UniProt P02771); experiment: ELISA additivity on coated antigen
T1 sequence (looked up): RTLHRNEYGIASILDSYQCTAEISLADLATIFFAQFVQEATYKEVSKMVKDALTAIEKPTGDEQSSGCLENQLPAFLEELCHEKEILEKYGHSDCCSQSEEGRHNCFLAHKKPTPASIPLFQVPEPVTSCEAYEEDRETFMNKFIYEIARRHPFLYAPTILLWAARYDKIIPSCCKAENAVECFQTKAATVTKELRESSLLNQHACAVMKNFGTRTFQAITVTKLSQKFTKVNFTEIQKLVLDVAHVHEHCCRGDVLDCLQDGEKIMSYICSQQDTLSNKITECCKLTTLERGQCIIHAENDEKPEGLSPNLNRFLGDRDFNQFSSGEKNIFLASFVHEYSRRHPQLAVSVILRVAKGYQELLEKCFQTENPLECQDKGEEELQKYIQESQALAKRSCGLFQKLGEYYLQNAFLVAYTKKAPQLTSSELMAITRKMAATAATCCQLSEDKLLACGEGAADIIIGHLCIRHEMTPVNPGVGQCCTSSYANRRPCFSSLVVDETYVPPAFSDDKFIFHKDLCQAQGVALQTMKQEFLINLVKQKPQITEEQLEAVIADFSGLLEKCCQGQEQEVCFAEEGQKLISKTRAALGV

[2] = target: T1, 重组AFP抗原 (甲胎蛋白, α-fetoprotein); experiment: Biacore sequential injection on immobilised antigen

binding [1]: binds
binding [2]: binds
B1: 抗AFP纳米抗体2F5 (VHH)
VHH: QVQLQESGGGVVQAGGSLRLTCAASESIFSFAAMGWYRQAPGKQRELVARITGGDNINYADSVKGRFTISKDNAKNTVYLQMNSLKPEDTAVYYCNGEGYGSSWFDDGKNYWGKGTQVTVSS
